Data published in the supplement of paper PMC10849652.
The other results are listed elsewhere or left out.

Sequences of proteins named here, by UniProt entry; tags and fusion partners are left off. A change or cut given only in a name is not applied to a line headed by its entry.
UniProt P41252: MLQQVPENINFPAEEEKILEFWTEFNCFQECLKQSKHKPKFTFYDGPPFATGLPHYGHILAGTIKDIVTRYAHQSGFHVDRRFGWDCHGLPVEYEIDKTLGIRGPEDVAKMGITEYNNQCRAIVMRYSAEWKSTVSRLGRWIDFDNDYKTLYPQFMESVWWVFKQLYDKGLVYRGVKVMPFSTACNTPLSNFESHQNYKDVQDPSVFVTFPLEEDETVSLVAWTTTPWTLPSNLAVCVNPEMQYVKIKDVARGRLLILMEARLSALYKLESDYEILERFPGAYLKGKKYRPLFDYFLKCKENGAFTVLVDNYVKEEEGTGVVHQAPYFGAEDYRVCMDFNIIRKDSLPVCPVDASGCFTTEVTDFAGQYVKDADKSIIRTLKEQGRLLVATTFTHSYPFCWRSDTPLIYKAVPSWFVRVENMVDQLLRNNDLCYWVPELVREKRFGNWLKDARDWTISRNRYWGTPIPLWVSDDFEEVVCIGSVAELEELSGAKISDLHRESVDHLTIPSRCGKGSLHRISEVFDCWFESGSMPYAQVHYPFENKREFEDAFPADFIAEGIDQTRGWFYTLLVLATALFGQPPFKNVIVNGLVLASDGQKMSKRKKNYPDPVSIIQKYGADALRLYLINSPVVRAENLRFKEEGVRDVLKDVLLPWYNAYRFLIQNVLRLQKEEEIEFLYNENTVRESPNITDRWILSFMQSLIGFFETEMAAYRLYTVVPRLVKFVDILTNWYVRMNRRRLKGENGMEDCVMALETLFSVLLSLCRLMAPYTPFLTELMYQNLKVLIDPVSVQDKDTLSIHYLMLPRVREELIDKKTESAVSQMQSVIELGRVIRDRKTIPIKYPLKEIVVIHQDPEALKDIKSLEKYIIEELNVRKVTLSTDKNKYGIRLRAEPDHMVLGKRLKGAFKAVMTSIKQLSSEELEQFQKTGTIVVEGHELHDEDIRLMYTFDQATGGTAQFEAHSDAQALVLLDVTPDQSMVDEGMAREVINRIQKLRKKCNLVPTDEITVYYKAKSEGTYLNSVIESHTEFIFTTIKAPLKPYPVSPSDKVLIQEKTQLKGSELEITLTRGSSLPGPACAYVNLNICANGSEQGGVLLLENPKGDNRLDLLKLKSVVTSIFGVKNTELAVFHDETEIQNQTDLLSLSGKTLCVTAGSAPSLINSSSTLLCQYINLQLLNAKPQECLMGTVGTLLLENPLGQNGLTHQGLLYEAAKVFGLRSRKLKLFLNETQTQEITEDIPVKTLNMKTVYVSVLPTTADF
UniProt Q70UQ0: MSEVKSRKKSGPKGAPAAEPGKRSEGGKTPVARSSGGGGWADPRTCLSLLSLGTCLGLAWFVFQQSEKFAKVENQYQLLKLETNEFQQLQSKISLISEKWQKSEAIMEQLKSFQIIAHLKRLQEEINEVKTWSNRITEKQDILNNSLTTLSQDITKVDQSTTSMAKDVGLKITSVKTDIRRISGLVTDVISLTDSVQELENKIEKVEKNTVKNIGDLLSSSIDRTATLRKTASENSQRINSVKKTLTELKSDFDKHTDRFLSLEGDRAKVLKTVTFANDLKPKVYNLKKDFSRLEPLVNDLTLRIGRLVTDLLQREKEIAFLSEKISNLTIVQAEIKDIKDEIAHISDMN
UniProt Q05084: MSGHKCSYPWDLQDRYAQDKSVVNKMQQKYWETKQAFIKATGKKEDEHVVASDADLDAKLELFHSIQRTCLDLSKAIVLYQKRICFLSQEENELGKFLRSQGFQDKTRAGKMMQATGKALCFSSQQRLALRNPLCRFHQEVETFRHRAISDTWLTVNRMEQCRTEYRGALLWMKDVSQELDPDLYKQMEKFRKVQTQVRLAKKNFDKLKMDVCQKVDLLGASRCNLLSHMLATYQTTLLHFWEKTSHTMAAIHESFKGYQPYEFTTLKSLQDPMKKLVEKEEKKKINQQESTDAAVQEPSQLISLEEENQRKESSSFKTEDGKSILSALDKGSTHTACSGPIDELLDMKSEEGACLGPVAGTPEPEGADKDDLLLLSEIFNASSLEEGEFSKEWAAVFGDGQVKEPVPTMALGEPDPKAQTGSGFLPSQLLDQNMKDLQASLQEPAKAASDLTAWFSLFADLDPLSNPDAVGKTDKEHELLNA
UniProt O43837: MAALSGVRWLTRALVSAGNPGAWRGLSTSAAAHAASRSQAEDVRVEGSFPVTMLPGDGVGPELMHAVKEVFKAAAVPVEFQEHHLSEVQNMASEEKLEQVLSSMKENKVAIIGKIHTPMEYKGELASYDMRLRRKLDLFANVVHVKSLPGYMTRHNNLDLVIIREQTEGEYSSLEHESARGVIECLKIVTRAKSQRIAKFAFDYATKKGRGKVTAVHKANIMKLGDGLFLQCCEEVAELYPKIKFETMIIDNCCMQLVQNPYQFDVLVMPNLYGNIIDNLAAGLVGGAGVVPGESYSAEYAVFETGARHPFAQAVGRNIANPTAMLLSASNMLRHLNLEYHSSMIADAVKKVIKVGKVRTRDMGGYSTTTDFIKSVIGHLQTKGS
UniProt P10809, whole entry, looked up: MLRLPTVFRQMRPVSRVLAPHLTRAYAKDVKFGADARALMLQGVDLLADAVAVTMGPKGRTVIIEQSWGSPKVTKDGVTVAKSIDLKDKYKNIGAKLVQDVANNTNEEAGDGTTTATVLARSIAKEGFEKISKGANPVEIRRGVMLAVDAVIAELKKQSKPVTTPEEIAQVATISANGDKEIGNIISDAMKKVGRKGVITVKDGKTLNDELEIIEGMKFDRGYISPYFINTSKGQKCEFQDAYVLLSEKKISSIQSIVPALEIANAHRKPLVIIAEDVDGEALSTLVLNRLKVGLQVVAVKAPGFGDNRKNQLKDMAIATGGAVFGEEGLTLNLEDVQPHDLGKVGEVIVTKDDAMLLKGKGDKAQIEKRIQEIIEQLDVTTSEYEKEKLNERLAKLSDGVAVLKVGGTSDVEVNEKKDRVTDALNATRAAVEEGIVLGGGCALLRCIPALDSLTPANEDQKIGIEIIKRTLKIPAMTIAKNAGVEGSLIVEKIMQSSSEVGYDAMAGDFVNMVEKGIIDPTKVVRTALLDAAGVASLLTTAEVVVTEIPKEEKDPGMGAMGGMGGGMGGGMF
UniProt Q9NVM9, whole entry, looked up: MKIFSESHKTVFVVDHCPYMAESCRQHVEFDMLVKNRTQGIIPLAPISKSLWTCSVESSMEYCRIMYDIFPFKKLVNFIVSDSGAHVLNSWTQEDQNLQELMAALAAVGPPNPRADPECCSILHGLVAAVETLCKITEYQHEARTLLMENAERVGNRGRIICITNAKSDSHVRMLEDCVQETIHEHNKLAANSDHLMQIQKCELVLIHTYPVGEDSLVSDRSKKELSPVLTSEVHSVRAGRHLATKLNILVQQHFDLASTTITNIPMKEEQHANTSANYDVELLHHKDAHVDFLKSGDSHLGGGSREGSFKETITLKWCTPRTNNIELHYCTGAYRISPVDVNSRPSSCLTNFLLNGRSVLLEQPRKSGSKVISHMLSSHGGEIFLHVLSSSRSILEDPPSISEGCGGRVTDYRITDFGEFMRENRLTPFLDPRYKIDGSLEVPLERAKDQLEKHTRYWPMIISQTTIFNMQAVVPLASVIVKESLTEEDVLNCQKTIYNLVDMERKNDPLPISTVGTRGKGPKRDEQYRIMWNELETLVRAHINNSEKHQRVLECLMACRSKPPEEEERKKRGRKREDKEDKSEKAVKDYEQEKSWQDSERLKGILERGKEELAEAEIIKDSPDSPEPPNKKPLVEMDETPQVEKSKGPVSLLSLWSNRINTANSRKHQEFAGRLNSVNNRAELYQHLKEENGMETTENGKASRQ
UniProt Q9Y6K9, whole entry, looked up: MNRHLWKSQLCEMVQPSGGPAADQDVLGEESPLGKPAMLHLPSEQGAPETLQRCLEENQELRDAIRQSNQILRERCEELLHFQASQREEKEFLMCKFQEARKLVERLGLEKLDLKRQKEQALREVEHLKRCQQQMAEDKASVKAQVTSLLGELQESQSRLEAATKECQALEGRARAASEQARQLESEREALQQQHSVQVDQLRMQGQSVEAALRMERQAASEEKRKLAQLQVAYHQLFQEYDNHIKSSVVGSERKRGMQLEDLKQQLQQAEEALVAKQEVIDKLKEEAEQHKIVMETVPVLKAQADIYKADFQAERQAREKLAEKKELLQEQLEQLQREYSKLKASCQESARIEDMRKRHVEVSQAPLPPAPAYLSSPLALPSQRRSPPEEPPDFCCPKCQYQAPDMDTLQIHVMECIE
UniProt O14920: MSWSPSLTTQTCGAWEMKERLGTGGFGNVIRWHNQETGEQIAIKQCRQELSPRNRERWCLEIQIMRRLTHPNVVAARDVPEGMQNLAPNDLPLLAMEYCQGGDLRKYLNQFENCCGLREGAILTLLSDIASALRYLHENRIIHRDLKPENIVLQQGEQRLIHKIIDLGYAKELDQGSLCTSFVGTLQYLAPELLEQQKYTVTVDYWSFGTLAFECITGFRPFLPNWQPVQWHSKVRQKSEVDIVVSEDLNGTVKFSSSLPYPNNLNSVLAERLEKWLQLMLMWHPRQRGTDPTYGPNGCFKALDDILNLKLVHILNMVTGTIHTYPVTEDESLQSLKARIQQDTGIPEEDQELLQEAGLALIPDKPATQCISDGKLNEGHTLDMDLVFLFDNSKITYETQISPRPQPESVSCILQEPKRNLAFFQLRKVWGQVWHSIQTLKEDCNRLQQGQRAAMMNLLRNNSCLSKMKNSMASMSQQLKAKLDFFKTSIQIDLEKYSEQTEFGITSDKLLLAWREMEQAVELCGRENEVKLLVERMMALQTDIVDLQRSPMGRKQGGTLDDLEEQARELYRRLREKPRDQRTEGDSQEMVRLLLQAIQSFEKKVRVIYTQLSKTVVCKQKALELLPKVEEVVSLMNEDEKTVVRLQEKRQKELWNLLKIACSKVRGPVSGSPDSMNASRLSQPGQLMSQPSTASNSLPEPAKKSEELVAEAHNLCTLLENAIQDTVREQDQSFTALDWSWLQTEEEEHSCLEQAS
UniProt Q9NSE4: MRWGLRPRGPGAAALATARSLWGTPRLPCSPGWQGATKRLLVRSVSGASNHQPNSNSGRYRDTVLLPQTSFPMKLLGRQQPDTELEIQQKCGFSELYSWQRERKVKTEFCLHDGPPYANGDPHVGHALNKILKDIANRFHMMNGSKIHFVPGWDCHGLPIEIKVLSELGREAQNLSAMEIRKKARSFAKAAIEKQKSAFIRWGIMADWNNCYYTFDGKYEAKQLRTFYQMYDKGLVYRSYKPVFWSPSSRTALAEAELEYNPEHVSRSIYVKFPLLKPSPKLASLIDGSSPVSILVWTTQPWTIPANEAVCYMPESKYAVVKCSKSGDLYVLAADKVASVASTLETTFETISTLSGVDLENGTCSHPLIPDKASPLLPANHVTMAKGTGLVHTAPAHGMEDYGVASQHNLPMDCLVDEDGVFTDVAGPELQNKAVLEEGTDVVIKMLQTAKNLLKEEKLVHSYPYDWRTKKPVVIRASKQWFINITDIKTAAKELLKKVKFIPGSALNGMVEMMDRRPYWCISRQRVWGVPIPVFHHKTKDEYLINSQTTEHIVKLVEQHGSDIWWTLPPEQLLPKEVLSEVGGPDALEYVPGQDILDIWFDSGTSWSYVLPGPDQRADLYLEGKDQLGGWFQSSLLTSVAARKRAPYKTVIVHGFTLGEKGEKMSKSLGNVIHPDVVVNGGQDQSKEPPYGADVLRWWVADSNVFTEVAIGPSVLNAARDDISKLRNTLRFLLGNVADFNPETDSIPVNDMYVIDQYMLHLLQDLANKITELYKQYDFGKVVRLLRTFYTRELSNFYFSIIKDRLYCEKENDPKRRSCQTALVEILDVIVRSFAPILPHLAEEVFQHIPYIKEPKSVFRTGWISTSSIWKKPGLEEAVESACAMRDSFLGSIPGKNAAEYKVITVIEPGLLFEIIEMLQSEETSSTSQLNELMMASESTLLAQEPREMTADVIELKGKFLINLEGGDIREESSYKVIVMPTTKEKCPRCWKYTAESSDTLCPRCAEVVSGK
UniProt Q9NV31: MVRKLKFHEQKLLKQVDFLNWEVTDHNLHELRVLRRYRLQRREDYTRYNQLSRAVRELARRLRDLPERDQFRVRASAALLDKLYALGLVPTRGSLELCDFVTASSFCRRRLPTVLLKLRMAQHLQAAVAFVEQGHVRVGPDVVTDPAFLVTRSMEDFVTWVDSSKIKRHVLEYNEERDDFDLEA
UniProt P78318: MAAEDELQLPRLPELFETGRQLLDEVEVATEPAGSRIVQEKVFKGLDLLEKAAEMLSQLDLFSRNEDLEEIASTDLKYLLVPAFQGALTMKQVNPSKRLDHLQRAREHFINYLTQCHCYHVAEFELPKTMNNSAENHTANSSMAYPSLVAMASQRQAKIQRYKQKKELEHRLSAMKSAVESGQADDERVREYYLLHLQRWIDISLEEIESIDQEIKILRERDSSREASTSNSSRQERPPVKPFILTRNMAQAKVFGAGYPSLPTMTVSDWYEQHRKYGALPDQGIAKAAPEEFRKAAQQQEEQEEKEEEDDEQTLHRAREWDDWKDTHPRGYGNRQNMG

How the values were obtained:
Assay in all cases: log2 fold change, soluble protein after heating vs DMSO (PISA); higher = thermal stabilisation; K562 lysate, 10 uM; active = over 0.2 and 3.5 SD of the protein, either way, in both replicates (recomputed)
[1] = compound: CN1CC[C@H](c2c(O)cc(O)c3c(=O)cc(-c4ccccc4Cl)oc23)[C@H](O)C1 [alvocidib]
Summary of the method: (§1)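 Quantification was by TMTpro 16plex LC-MS/MS with equalised channel sums, applied to the supernatant after 21,000xg for 90 min. Samples were crude K562 extract at 1 mg/mL protein in PBS pH 7.4 with 1 mM MgCl2, treated with 10 μM compound for 30 min, heated for 3 min across 48°C-58°C, pooled and brought to 0.5% NP-40 at 4°C. Values are log-two fold changes in thermal stability relative to solvent controls, from duplicates.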

[2] = compound: CN1CCc2c(c3ccccc3n2Cc2ccc(C(=O)NO)cc2)C1 [Tubastatin A]
Summary of the method: as §1

[3] = compound: CNC(=O)C1=CC=CC=C1NC2=NC(=NC=C2Cl)NC3=C(C=C(C=C3)N4CCOCC4)OC
Summary of the method: as §1

[4] = compound: CNC(=O)c1ccc(Nc2ncc(C(F)(F)F)c(NCc3nccnc3N(C)S(C)(=O)=O)n2)cc1 [defactinib]
Summary of the method: as §1

[5] = compound: CNc1nc(-c2ccc3c(N)n[nH]c3c2)cc(N2C[C@@H](C(=O)NC3CCCCC3)CC[C@H]2C)n1
Summary of the method: as §1

[6] = compound: COC(=O)N[C@@H](C)CNc1nccc(-c2cn(C(C)C)nc2-c2cc(Cl)cc(NS(C)(=O)=O)c2F)n1 [encorafenib]
Summary of the method: as §1

[7] = compound: COC(=O)[C@H](CCSC)NC(=O)C1=C(C=C(C=C1)NC[C@H](CS)N)C2=CC=CC=C2
Summary of the method: as §1

[8] = compound: COc1cc(Nc2ncc3c(n2)-c2ccc(Cl)cc2C(c2c(F)cccc2OC)=NC3)ccc1C(=O)O [alisertib]
Summary of the method: as §1

[9] = compound: COc1cc2nc(-c3cc(F)ccc3O)nc(N[C@@H]3CNC[C@H]3C(C)(C)O)c2cc1OC
Summary of the method: as §1

[10] = compound: COc1cc2ncnc(Nc3ccc(F)c(Cl)c3)c2cc1OCCCN1CCOCC1 [gefitinib]
Summary of the method: as §1

[11] = compound: CS(=O)(=O)CCNCc1ccc(-c2ccc3ncnc(Nc4ccc(OCc5cccc(F)c5)c(Cl)c4)c3c2)o1 [lapatinib]
Summary of the method: as §1

[12] = compound: CS(=O)(=O)N1CCN(Cc2cc3nc(-c4cccc5[nH]ncc45)nc(N4CCOCC4)c3s2)CC1 [pictilisib]
Summary of the method: as §1

[13] = compound: C[C@@H](Oc1cc(-c2cnn(C3CCNCC3)c2)cnc1N)c1c(Cl)ccc(F)c1Cl [crizotinib]
Summary of the method: as §1

[14] = compound: C[C@H](C1=CC=C(C=C1)C(=O)NC2=C3C=CNC3=NC=C2)N
Summary of the method: as §1

[15] = compound: C[C@H](Nc1ncnc2nc[nH]c12)c1cc2cccc(Cl)c2c(=O)n1-c1ccccc1 [duvelisib]
Summary of the method: as §1

[16] = compound: Cc1cc(Nc2cc(CN3CCOCC3)c3nc(C)c(Cc4ccc(Cl)cc4F)n3n2)n[nH]1 [gandotinib]
Summary of the method: as §1

[17] = compound: Cc1cc(Nc2cc(N3CCN(C)CC3)nc(Sc3ccc(NC(=O)C4CC4)cc3)n2)n[nH]1 [tozasertib]
Summary of the method: as §1

[18] = compound: Cc1ccc(-n2nc(C(C)(C)C)cc2NC(=O)Nc2ccc(OCCN3CCOCC3)c3ccccc23)cc1 [doramapimod]
Summary of the method: as §1

[19] = compound: Cc1ccc(NC(=O)c2ccc(CN3CC[C@H](N(C)C)C3)c(C(F)(F)F)c2)cc1Nc1nccc(-c2cncnc2)n1 [bafetinib]
Summary of the method: as §1

[20] = compound: Cc1cccc(CC(=O)N2CCc3c2ccc(-c2cn(C)c4ncnc(N)c24)c3F)n1
Summary of the method: as §1

Target | log2 fold change [1] | log2 fold change [2] | log2 fold change [3] | log2 fold change [4] | log2 fold change [5] | log2 fold change [6] | log2 fold change [7] | log2 fold change [8] | log2 fold change [9] | log2 fold change [10] | log2 fold change [11] | log2 fold change [12] | log2 fold change [13] | log2 fold change [14] | log2 fold change [15] | log2 fold change [16] | log2 fold change [17] | log2 fold change [18] | log2 fold change [19] | log2 fold change [20]
IARS (UniProt P41252) | inactive: 0.006 | inactive: -0.134 | inactive: 0.01 | inactive: 0.02 | inactive: -0.03 | inactive: 0 | inactive: 0.134 | inactive: 0.02 | inactive: 0.008 | inactive: -0.021 | inactive: -0.032 | inactive: -0.006 | inactive: -0.045 | inactive: 0.059 | inactive: -0.001 | inactive: -0.13 | inactive: 0.013 | inactive: 0.016 | inactive: -0.015 | inactive: -0.041
HSPG2 (UniProt P98160) | inactive: -0.037 | inactive: -0.002 | inactive: 0.001 | inactive: 0.001 | inactive: 0.029 | inactive: 0.021 | inactive: 0.043 | inactive: -0.109 | inactive: 0.011 | inactive: 0.05 | inactive: -0.003 | inactive: -0.031 | inactive: 0.011 | inactive: -0.189 | inactive: 0.01 | inactive: 0.122 | inactive: -0.024 | inactive: 0.006 | inactive: 0.045 | inactive: 0.062
IKBIP (UniProt Q70UQ0) | inactive: -0.036 | inactive: 0.015 | inactive: 0.008 | inactive: 0.011 | inactive: -0.02 | inactive: 0.02 | inactive: 0.027 | inactive: 0.093 | inactive: 0.01 | inactive: 0.042 | inactive: -0.023 | inactive: -0.018 | inactive: 0.007 | inactive: -0.061 | inactive: 0.002 | inactive: 0.016 | inactive: 0.057 | inactive: -0.052 | inactive: -0.044 | inactive: 0.03
ICA1 (UniProt Q05084) | inactive: -0.015 | inactive: -0.082 | inactive: 0.03 | inactive: -0.059 | inactive: -0.061 | inactive: 0.042 | inactive: 0.055 | inactive: -0.028 | inactive: 0.001 | inactive: 0.015 | inactive: -0.044 | inactive: 0.006 | inactive: -0.068 | inactive: 0 | inactive: 0.011 | inactive: 0.016 | inactive: 0.006 | inactive: 0.015 | inactive: 0 | inactive: -0.007
IDH3B (UniProt O43837) | inactive: -0.022 | inactive: -0.013 | inactive: -0.043 | inactive: 0.016 | inactive: -0.003 | inactive: -0.025 | inactive: 0.058 | inactive: 0.014 | inactive: -0.014 | inactive: -0.039 | inactive: 0.005 | inactive: -0.041 | inactive: 0.008 | inactive: -0.081 | inactive: -0.004 | inactive: 0.002 | inactive: 0.002 | inactive: -0.016 | inactive: -0.019 | inactive: -0.004
HSPD1 (UniProt P10809) | inactive: -0.02 | inactive: 0.039 | inactive: 0 | inactive: -0.031 | inactive: 0.041 | inactive: -0.021 | inactive: 0.01 | inactive: 0 | inactive: 0.019 | inactive: -0.005 | inactive: 0.001 | inactive: -0.012 | inactive: 0 | inactive: 0 | inactive: 0.003 | inactive: 0.05 | inactive: 0.003 | inactive: -0.013 | inactive: -0.003 | inactive: 0.017
INTS13 (UniProt Q9NVM9) | inactive: -0.004 | inactive: -0.06 | inactive: 0.013 | inactive: -0.005 | inactive: -0.015 | inactive: -0.009 | inactive: 0.139 | inactive: 0.048 | inactive: -0.016 | inactive: 0.041 | inactive: 0.004 | inactive: -0.008 | inactive: 0.004 | inactive: 0.021 | inactive: -0.006 | inactive: -0.019 | inactive: -0.005 | inactive: -0.02 | inactive: 0.003 | inactive: 0.02
IKBKG isoform 2 (UniProt Q9Y6K9) | inactive: -0.049 | inactive: 0.02 | inactive: 0.026 | inactive: 0.015 | inactive: 0.05 | inactive: 0.016 | inactive: -0.09 | inactive: 0.008 | inactive: 0.053 | inactive: -0.006 | inactive: -0.026 | inactive: 0.01 | inactive: -0.005 | inactive: -0.054 | inactive: 0.025 | inactive: 0.048 | inactive: -0.016 | inactive: 0 | inactive: 0 | inactive: 0.01
IDH2 (UniProt P48735) | inactive: 0.007 | inactive: -0.047 | inactive: -0.003 | inactive: 0.035 | inactive: 0.02 | inactive: -0.01 | inactive: 0.162 | inactive: 0.018 | inactive: 0.012 | inactive: -0.013 | inactive: -0.016 | inactive: 0.006 | inactive: -0.077 | inactive: 0.117 | inactive: 0.064 | inactive: -0.122 | inactive: 0.032 | inactive: 0.06 | inactive: -0.034 | inactive: -0.072
IKBKB (UniProt O14920) | inactive: 0.073 | inactive: 0.004 | inactive: -0.014 | inactive: -0.006 | inactive: -0.028 | inactive: 0.02 | inactive: 0.093 | inactive: -0.023 | inactive: -0.033 | inactive: 0.056 | inactive: 0.031 | inactive: -0.019 | inactive: -0.01 | inactive: 0.105 | inactive: 0.008 | inactive: -0.015 | inactive: -0.031 | inactive: -0.002 | inactive: -0.051 | inactive: -0.028
IARS2 (UniProt Q9NSE4) | inactive: 0.072 | inactive: 0.021 | inactive: -0.026 | inactive: 0.004 | inactive: -0.003 | inactive: -0.006 | inactive: 0.014 | inactive: -0.013 | inactive: -0.011 | inactive: 0.004 | inactive: -0.023 | inactive: -0.013 | inactive: -0.01 | inactive: 0.19 | inactive: -0.007 | inactive: -0.057 | inactive: 0.02 | inactive: 0.011 | inactive: -0.002 | inactive: -0.049
IMP3 (UniProt Q9NV31) | inactive: -0.157 | inactive: 0.013 | inactive: 0.018 | inactive: -0.049 | inactive: -0.053 | inactive: 0.004 | inactive: -0.023 | inactive: -0.047 | inactive: 0.001 | inactive: -0.003 | inactive: 0.425 | inactive: -0.014 | inactive: -0.176 | inactive: -0.134 | inactive: -0.304 | inactive: 0.038 | inactive: -0.077 | inactive: 0.071 | inactive: -0.181 | inactive: 0.306
IMPDH2 (UniProt P12268) | inactive: 0.026 | active: -0.226 | inactive: 0.013 | inactive: 0.03 | inactive: 0.017 | inactive: 0.021 | active: -0.501 | inactive: 0.029 | inactive: -0.015 | inactive: -0.023 | inactive: 0.027 | inactive: 0.043 | inactive: -0.007 | inactive: -0.011 | inactive: -0.012 | inactive: -0.04 | inactive: -0.017 | inactive: 0.029 | inactive: 0.041 | inactive: 0.012
IMMT (UniProt Q16891) | inactive: 0.031 | inactive: -0.079 | inactive: -0.03 | inactive: 0.019 | inactive: -0.041 | inactive: 0.014 | inactive: -0.045 | inactive: 0.034 | inactive: -0.145 | inactive: -0.022 | inactive: -0.058 | inactive: 0.001 | inactive: -0.049 | inactive: -0.006 | inactive: -0.039 | inactive: -0.134 | inactive: 0.02 | inactive: 0.011 | inactive: -0.053 | inactive: 0.023
HSPA8 (UniProt E9PK54) | inactive: -0.047 | inactive: 0.036 | inactive: -0.066 | inactive: -0.041 | inactive: -0.05 | inactive: -0.025 | inactive: -0.004 | inactive: -0.016 | inactive: 0.016 | inactive: -0.051 | inactive: -0.067 | inactive: -0.013 | inactive: 0.051 | inactive: -0.025 | inactive: 0.004 | inactive: 0.058 | inactive: 0.067 | inactive: 0.011 | inactive: 0.026 | inactive: 0.046
IGBP1 (UniProt P78318) | inactive: -0.02 | inactive: 0.001 | inactive: 0.049 | inactive: 0.018 | inactive: 0.044 | inactive: -0.019 | inactive: -0.136 | inactive: 0.007 | inactive: -0.005 | inactive: 0.022 | inactive: 0.012 | inactive: -0.013 | inactive: 0.013 | inactive: -0.144 | inactive: 0.018 | inactive: 0.021 | inactive: -0.018 | inactive: -0.006 | inactive: 0.024 | inactive: 0.014
